The text below walks through data of PubChem BioAssay AID1487 (National Center for Advancing Translational Sciences (NCATS), 2009).

This assay can be described thus: qHTS Assay for Modulators of Lamin A Splicing. The following applies: HeLa LMNA splicing GFP/RFP minigene ratio, 48 h. An outline of the steps: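 S3 HeLa cells stably expressing lamin A-EGFP splicing minigene plus DsRed2, 600 cells/well, 48 h compound exposure at 37C. Laser-scanning cytometry; analysed as GFP (500-530 nm)/RFP (575-640 nm) total intensity ratio; 0.5% DMSO vehicle.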
In general terms: In qHTS, concentration-response curves come from the screen itself.

The mark [1] stands for this setting: measured here: RFP viability control channel.
Where [2] appears, read: measured here: GFP splicing reporter channel.

The list shows a part of the results. Further columns of the screen follow, without active or inactive calls. Most of these compounds were active or inconclusive in the main read-out, so they are no random draw. Potencies come from curve fits of mixed quality, noted in brackets.

As a reminder, the AC50 is the midpoint of the concentration-response curve, whichever way the signal moves. As for `C/C(=N\NC(=S)Nc1ccc(C)c(C)c1)c1ccc(N2CCOCC2)cc1`, the AC50 under setting [1] is 11.2 µM [rising, partial curve]. As to `CNc1ccc(S(=O)(=O)NCC(=O)OCC(=O)Nc2cccc(Cl)c2Cl)cc1[N+](=O)[O-]`, the AC50 under setting [2] was 14.1 µM [rising, partial curve, poor fit] and the AC50 under setting [1] is 17.8 µM [rising, single point]. As for `CCCCOc1ccc(CNC(=O)CN2C(=O)CCn3nc(-c4cn(C)c5ccccc45)cc32)cc1`, the AC50 was 0.0112 µM [falling, full curve, poor fit] under setting [2] and 0.00794 µM [falling, full curve, poor fit] under setting [1]. Turning to `CCOc1cc(/C=N/NC(=O)c2cc(C)n(-c3ccc(F)cc3)c2C)ccc1O`, the AC50 under setting [1] was 35.5 µM [falling, single point].

For `Cc1c(C(=O)NCc2cccnc2)oc2ccc(S(=O)(=O)N3CCCCCC3)cc12`, the AC50 under setting [1] is 11.2 µM [rising, single point]. For `CCOC(=O)O[C@@H](C)OC(=O)[C@@H]1N2C(=O)[C@@H](NC(=O)[C@@H](N)c3ccccc3)[C@H]2SC1(C)C`, the AC50 is, setting by setting: under setting [2], 0.00447 µM [falling, full curve]; under setting [1], 0.00398 µM [falling, full curve, poor fit]. Regarding `Nc1nc(Nc2cccc(Cl)c2)sc1C(=O)c1ccc(F)cc1`, the AC50 under setting [1] was 7.08 µM [falling, partial curve, poor fit]. `Cc1ccc(S(=O)(=O)Cn2nnnc2CN2CCN(Cc3ccc4c(c3)OCO4)CC2)cc1`: the AC50 is 1.41 µM [rising, partial curve] under setting [2] and 7.94 µM [rising, partial curve, poor fit] under setting [1]. For `O=c1[nH]c2sc3c(c2c(=O)n1Cc1ccccc1)CCC3`, under setting [1], the AC50 is 25.1 µM [rising, single point]. On to `CS(=O)(=O)Nc1ccc(-c2nc3ccccc3s2)cc1`, for which the AC50 under setting [2] is 2.82 µM [rising, partial curve]. In the case of `COc1cccc(NC(=S)N(CCc2c(C)[nH]c3ccccc23)Cc2cccs2)c1`, the AC50 was 12.6 µM [rising, single point] under setting [2] and 22.4 µM [rising, single point] under setting [1]. As for `CC1C(O)=C(c2nc3ccccc3[nH]2)C(=N)N1c1ccccc1` (stereo not given), under setting [1], the AC50 is 20 µM [rising, single point]. Consider `CCCCn1c(NCc2ccc3c(c2)OCO3)nc2ccccc21`, for which the AC50 under setting [1] is 12.6 µM [rising, single point].

For the compound `Oc1ccc(N=Nc2n[nH]c(-c3ccc(Br)cc3)n2)cc1`, the AC50 was 25.1 µM [falling, partial curve] under setting [2] and 12.6 µM [falling, partial curve] under setting [1]. For `Cc1c(C(=O)NCCSCc2ccc(Cl)cc2Cl)cccc1[N+](=O)[O-]`, the AC50 reads like this: under setting [2], 20 µM [falling, single point]; under setting [1], 22.4 µM [falling, partial curve, poor fit]. On to `O=C(CSCc1nc2ccccc2[nH]1)N1CCN(c2cccc(Cl)c2)CC1`, for which the AC50 under setting [1] is 11.2 µM [rising, partial curve]. Regarding `O=C(NCc1ccco1)c1ccc2c(=O)n(-c3ccccc3)c(=O)n(Cc3cccc(F)c3)c2c1`, under setting [1], the AC50 was 0.0794 µM [falling, full curve, poor fit]. On to `O=C(Nc1ccc(OCC(F)(F)C(F)F)c(C(F)(F)F)c1)c1ccccc1O`, for which the AC50 under setting [2] was 35.5 µM [falling, single point] and the AC50 under setting [1] was 12.6 µM [falling, single point].

As for `CN(C)Cc1ccccc1-c1nc(N(C)Cc2ccco2)c2ccccc2n1`, the AC50 runs as follows: under setting [2], 35.5 µM [rising, single point]; under setting [1], 25.1 µM [rising, single point]. With `C=CCn1cc(C(=O)NCc2ccc3c(c2)OCO3)c(=O)c2cc(S(=O)(=O)N(CC)CC)ccc21`, the AC50 under setting [2] is 8.91 µM [rising, partial curve]. On to `O=C(NCc1ccccn1)c1cc(-c2ccc(Br)cc2)nc2ccccc12`, for which the AC50 under setting [1] was 35.5 µM [rising, single point]. Still for that read-out and setting: the figure for `CC(=O)c1c(C)n([O-])c2cc(C)ccc2[n+]1=O` is 6.31 µM [rising, single point]. For the compound `O=C(CCCN1C(=O)/C(=C/c2ccccc2Cl)SC1=S)Nc1ccccn1`, the AC50 is 1.26 µM [falling, partial curve, poor fit] under setting [2] and 8.91 µM [rising, partial curve] under setting [1]. On to `C=C(C)c1cccc(C(C)(C)NC(=O)N2CCN(c3ccccc3OC)CC2)c1`, for which the AC50 under setting [1] is 14.1 µM [rising, single point]. `COc1ccc(C(=O)NC(=S)Nc2ccc(Cc3ccncc3)cc2)cc1`: the AC50 under setting [1] is 35.5 µM [rising, single point]. Take `N#C/C(=C\c1ccccc1)C(=O)Nc1cc(S(=O)(=O)N2CCOCC2)ccc1N1CCCC1`: the concentration at half-maximal activity (AC50) under setting [1] is 5.01 µM [rising, single point]. Consider `CC(Sc1nc2ccccc2s1)C(=O)N1CCOCC1` (stereo not given), for which the AC50 under setting [1] was 35.5 µM [rising, single point].

Consider `CCn1c(CCNC(=O)c2cccs2)n[nH]c1=S`, for which the AC50 under setting [2] was 0.398 µM [falling, full curve] and the AC50 under setting [1] is 0.0891 µM [falling, full curve, poor fit]. In the case of `O=C1NN(c2ccc(F)cc2)C(=O)/C1=C/c1cccs1`, the AC50 under setting [2] is 0.708 µM [rising, partial curve]. `COc1ccccc1Nc1ncc2c(n1)CCN(Cc1cc(F)cc(F)c1)C2`: the AC50 under setting [1] is 2.24 µM [rising, single point]. For the compound `Cc1cc(C)c(NC(=O)CSc2nc(=O)n(Cc3cccnc3)c3c2CCC3)c(C)c1`, the AC50 under setting [1] is 0.0282 µM [falling, full curve]. Turning to `COc1cccc(NC(=O)C(c2ccccc2)N2CCNC(=O)C2)c1` (stereo not given), the AC50 under setting [2] was 2.82 µM [falling, single point].

Take `O=C(CSc1nc2ccccc2n1CC(=O)N1CCCC1)NCc1ccc2c(c1)OCO2`: the AC50 was 4.47 µM [rising, single point] under setting [2] and 5.62 µM [rising, single point] under setting [1]. In the case of `CCOc1ccc(N2C(=O)C3C(c4ccccc4F)NN(C(=O)c4ccc(C)cc4)C3C2=O)cc1` (stereo not given), the AC50 under setting [2] was 0.141 µM [falling, full curve, poor fit]. For the compound `Cc1cc(C(=S)N2CCOCC2)c(C)n1-c1ccc(Cl)cc1`, the AC50 under setting [1] was 35.5 µM [rising, single point]. Take `COc1cc(C)c(C(=O)Oc2cc(C)c(C(=O)O)c(O)c2C)c(OC)c1C`: the AC50 under setting [2] was 14.1 µM [rising, single point]. Take `CC(=O)N1CCc2cc(Br)cc(S(=O)(=O)NCCc3cccc(C)c3)c21`: the AC50 reads like this: under setting [2], 7.08 µM [falling, partial curve, poor fit]; under setting [1], 14.1 µM [falling, partial curve, poor fit]. For `C/C(=N\NC(=O)C(c1ccncc1)N1CCOCC1)c1ccc(Br)cc1` (stereo not given), the AC50 under setting [2] is 0.1 µM [falling, full curve]. Consider `CC1(C)CC(=O)C=C(NC2=CC3OC(c4ccccc4)OCC3OC2=O)C1` (stereo not given), for which the AC50 is 22.4 µM [rising, partial curve, poor fit] under setting [2] and 22.4 µM [rising, partial curve] under setting [1]. Regarding `CCNC(=O)c1cc(Cl)ccc1OC`, the AC50 under setting [2] was 0.316 µM [rising, full curve, poor fit] and the AC50 under setting [1] was 0.251 µM [rising, full curve, poor fit]. With `N#C/C(=N\Nc1cc(Cl)cc(Cl)c1)c1nnc2n1CCCCC2`, under setting [1], the AC50 was 31.6 µM [rising, single point].

Regarding `COc1cccc(-n2c(CN3CCN(c4ccccc4)CC3)nc3ccc([N+](=O)[O-])cc3c2=O)c1`, under setting [1], the AC50 was 15.8 µM [rising, partial curve]. For `O=C(CSc1nnc(COc2ccc(F)cc2)o1)N1c2ccccc2CCc2ccccc21`, the AC50 is 10 µM [rising, partial curve] under setting [2] and 15.8 µM [rising, partial curve] under setting [1]. As for `O=C(Nc1ccc(Cl)cc1)N1CCC(c2nc(-c3cccs3)no2)CC1`, the AC50 is, setting by setting: under setting [2], 25.1 µM [rising, single point]; under setting [1], 25.1 µM [rising, single point]. For `COc1ccc(-n2c(SCC(=O)NCCC(C)C)nc3ccsc3c2=O)cc1`, the AC50 was 3.98 µM [rising, single point] under setting [2] and 5.62 µM [rising, single point] under setting [1]. For `CCN(CC)c1ccc(NC(=O)c2cc(OC)cc(OC)c2)c(C)c1`, the AC50 was 1.26 µM [rising, single point] under setting [2] and 0.794 µM [rising, full curve, poor fit] under setting [1]. On to `CCNc1ncc2ncc(=O)n(Cc3ccc(F)cc3)c2n1`, for which, under setting [2], the AC50 is 14.1 µM [falling, partial curve]. Take `CS(=O)(=O)c1ccc2nc(NC(=O)c3cc4ccccc4o3)sc2c1`: the AC50 under setting [1] was 12.6 µM [rising, single point].

As for `O=C(Nc1nc2ccccc2s1)c1ccc(OCC2CCCO2)cc1` (stereo not given), the AC50 was 14.1 µM [rising, single point] under setting [2] and 17.8 µM [rising, partial curve] under setting [1].

For the compound `Cc1cc(NC(=O)C2CCN(S(=O)(=O)c3cccs3)CC2)no1`, the AC50 under setting [1] was 2.51 µM [rising, single point]. For the compound `O=C1NCC2(CCN(CCc3ccccc3)CC2)O1`, under setting [1], the AC50 is 0.00355 µM [falling, full curve, poor fit].

With `CCOc1ccccc1NC1=C(Cl)C(=O)N(Cc2ccccc2)C1=O`, under setting [2], the AC50 was 10 µM [falling, single point]. For the compound `CSc1ncc(Cl)c(C(=O)C(C#N)c2nc3c(C)cc(C)cc3c(=O)[nH]2)n1` (stereo not given), under setting [1], the AC50 is 35.5 µM [rising, single point]. On to `CCCSc1ncc(Cl)c(C(=O)Nc2ccc(S(=O)(=O)N3CC(C)OC(C)C3)cc2)n1` (stereo not given), for which the AC50 is 35.5 µM [rising, single point] under setting [2] and 31.6 µM [rising, single point] under setting [1].
